# According to article PMC8626312, “In vitro assembly complex formation of TRAIP CC and RAP 80 zinc finger motif revealed by our study” (Saudi Journal of Biological Sciences, 2021):
# Results are given in words; binding and its absence hold for the method and conditions named.
# B1: TRAIP RINGCC (1-157aa) (domain or fragment, human, UniProt Q9BWF2 1-157, looked up)
# chain: MPIRALCTICSDFFDHSRDVAAIHCGHTFHLQCLIQWFETAPSRTCPQCRIQVGKRTIINKLFFDLAQEEENVLDAEFLKNELDNVRAQLSQKDKEKRDSQVIIDTLRDTLEERNATVVSLQQALGKAEMLCSTLKKQMKYLEQQQDETKQAQEEAR
# notes: the methods name pET24a with a C-terminal His6; One sentence of the results prints 1–517; also called TRAIP-5; TRAIP RINGCC (1–517); source: E. coli BL21 (DE3), purified (Ni-NTA, SEC)
# Biological target: T1, RAP80 zinc finger (490–584 aa) (human) (UniProt Q96RL1)
# T1 sequence: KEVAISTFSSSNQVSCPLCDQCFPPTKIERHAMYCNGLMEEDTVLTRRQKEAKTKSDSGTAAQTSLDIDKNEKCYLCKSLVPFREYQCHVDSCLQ
# Assay: SEC; purified proteins mixed in a molar ratio of approximately 1:1, pre-incubated 30 min at 4 °C, Superdex 200 HR 10/30, 20 mM Tris-HCl pH 8.0, 150 mM NaCl; fractions on SDS-PAGE; both purified
binder,measurement,value
B1,binding,no binding
